Results: US6342368B1, “WD-40-derived peptides and uses thereof” (The Board of Trustees of the Leland Stanford Junior …, priority 1994, dated 2002)
No constants are given. Whether binding was seen depends on the method and setting. Some binding calls cover weakened binding; strength is not graded here.

By UniProt entry, the sequences of proteins in these tests, tags left out. Residues count along the entry.
UniProt P68403, residues 2-671: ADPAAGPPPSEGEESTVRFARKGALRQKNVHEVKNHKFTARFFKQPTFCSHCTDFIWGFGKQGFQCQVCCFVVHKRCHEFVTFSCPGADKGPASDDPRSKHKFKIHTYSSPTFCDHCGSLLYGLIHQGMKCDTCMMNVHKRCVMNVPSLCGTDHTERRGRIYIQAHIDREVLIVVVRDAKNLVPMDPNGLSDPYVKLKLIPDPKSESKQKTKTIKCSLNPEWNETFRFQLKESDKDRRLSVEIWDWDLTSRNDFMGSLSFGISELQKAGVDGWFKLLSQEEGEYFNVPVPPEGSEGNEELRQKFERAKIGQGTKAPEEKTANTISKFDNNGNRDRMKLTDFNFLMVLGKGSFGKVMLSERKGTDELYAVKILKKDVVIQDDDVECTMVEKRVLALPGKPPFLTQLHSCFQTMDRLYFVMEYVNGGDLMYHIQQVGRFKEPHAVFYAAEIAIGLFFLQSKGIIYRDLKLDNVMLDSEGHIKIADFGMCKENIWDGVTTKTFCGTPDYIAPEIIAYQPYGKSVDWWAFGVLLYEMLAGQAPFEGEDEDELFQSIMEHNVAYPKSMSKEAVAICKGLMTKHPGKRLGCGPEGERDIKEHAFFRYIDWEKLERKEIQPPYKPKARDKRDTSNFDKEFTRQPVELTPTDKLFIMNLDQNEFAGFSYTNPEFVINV

What was measured:
[1] = molecular target: βPKC (rat brain protein kinase C, β isozyme) (rat) (UniProt P68403); experiment: slot-blot PKC overlay of immobilized peptide
[2] = molecular target: βPKC (rat brain protein kinase C, β isozyme) (rat) (UniProt P68403); experiment: slot-blot PKC overlay of immobilized peptide (FIG. 4)
[3] = molecular target: βPKC (rat brain protein kinase C, β isozyme) (rat) (UniProt P68403); experiment: slot-blot PKC overlay of immobilized peptide, 5 nM rat brain PKC with and without PS, DG and calcium, anti-βPKC detection

Measured: binding

DIINALCF [peptide rVI]
binds: [1] | [2] | [3]
